Values are animals surviving of animals treated; these mice carried no tumour. Survivors were counted at the toxicity check, usually on the fifth day, unless a day is given; later deaths do not show. Schedule codes are those of the source, read here as Q, the interval in days (D) or hours (H), X, the number of doses. Some entries were tested several times; the values are given in rising order.
Tested on: B6D2F1 mice, nontumored toxicity test, survival
Assay: NCI In Vivo Anticancer Drug Screen. Data for tumor model Nontumored Animals (Toxicity Test) in B6D2F1 (BDF1) mice

`CC(CN1CC(=O)NC(=O)C1)N1CC(=O)NC(=O)C1` (configuration not stated) was tested, and the survivor count (dose: 1.6 mg/kg/injection, schedule: Q03HX016 (oral), vehicle: steroid suspending solution) was 6 of 6, the survivor count (dose: 1.6 mg/kg/injection, schedule: Q03HX024 (ip), vehicle: steroid suspending solution) was 6 of 6 and the survivor count (dose: 1.6 mg/kg/injection, schedule: Q03HX024 (oral), vehicle: steroid suspending solution) was 6 of 6. For the same molecule, the survivor count (dose: 3.2 mg/kg/injection, schedule: Q03HX016 (oral), vehicle: steroid suspending solution) was 6 of 6, the survivor count (dose: 3.2 mg/kg/injection, schedule: Q03HX024 (ip), vehicle: steroid suspending solution) was 5 of 5 and the survivor count (dose: 3.2 mg/kg/injection, schedule: Q03HX024 (oral), vehicle: steroid suspending solution) was 6 of 6. For the same molecule, the survivor count (dose: 6.3 mg/kg/injection, schedule: Q03HX016 (oral), vehicle: steroid suspending solution) was 6 of 6, the survivor count (dose: 6.3 mg/kg/injection, schedule: Q03HX024 (ip), vehicle: steroid suspending solution) was 6 of 6 and the survivor count (dose: 6.3 mg/kg/injection, schedule: Q03HX024 (oral), vehicle: steroid suspending solution) was 6 of 6. For the same molecule, the survivor count (dose: 8.0 mg/kg/injection, schedule: Q01DX009 (ip), vehicle: saline with Tween-80) was 8 of 8, the survivor count (dose: 8.0 mg/kg/injection, schedule: Q01DX009 (oral), vehicle: saline with Tween-80) was 8 of 8 and the survivor count (dose: 8.0 mg/kg/injection, schedule: Q01DX009 (sc), vehicle: saline with Tween-80) was 8 of 8. The survivor count (dose: 8.0 mg/kg/injection, schedule: Q03HX016 (ip), vehicle: saline with Tween-80) was 8 of 8, the survivor count (dose: 8.0 mg/kg/injection, schedule: Q03HX024 (ip), vehicle: saline with Tween-80) was 8 of 8 and the survivor count (dose: 12.5 mg/kg/injection, schedule: Q03HX016 (oral), vehicle: steroid suspending solution) was 6 of 6. The survivor count (dose: 12.5 mg/kg/injection, schedule: Q03HX024 (ip), vehicle: steroid suspending solution) was 6 of 6, the survivor count (dose: 12.5 mg/kg/injection, schedule: Q03HX024 (oral), vehicle: steroid suspending solution) was 6 of 6 and the survivor count (dose: 12.5 mg/kg/injection, schedule: Q04DX003 (ip), vehicle: steroid suspending solution) was 6 of 6. For the same molecule, the survivor count (dose: 16.0 mg/kg/injection, schedule: Q01DX009 (ip), vehicle: saline with Tween-80) was 8 of 8, the survivor count (dose: 16.0 mg/kg/injection, schedule: Q01DX009 (oral), vehicle: saline with Tween-80) was 8 of 8 and the survivor count (dose: 16.0 mg/kg/injection, schedule: Q01DX009 (sc), vehicle: saline with Tween-80) was 8 of 8. For the same molecule, the survivor count (dose: 16.0 mg/kg/injection, schedule: Q03HX016 (ip), vehicle: saline with Tween-80) was 8 of 8, the survivor count (dose: 16.0 mg/kg/injection, schedule: Q03HX024 (ip), vehicle: saline with Tween-80) was 7 of 7 and the survivor count (dose: 25.0 mg/kg/injection, schedule: Q03HX024 (ip), vehicle: steroid suspending solution) was 6 of 6. For the same molecule, the survivor count (dose: 25.0 mg/kg/injection, schedule: Q04DX003 (ip), vehicle: steroid suspending solution) was 6 of 6, the survivor count (dose: 25.0 mg/kg/injection, schedule: Q04DX003 (oral), vehicle: steroid suspending solution) was 6 of 6 and the survivor count (dose: 32.0 mg/kg/injection, schedule: Q01DX009 (ip), vehicle: saline with Tween-80) was 7 of 8 and 8 of 8. For the same molecule, the survivor count (dose: 32.0 mg/kg/injection, schedule: Q01DX009 (oral), vehicle: saline with Tween-80) was 7 of 7 and 8 of 8, the survivor count (dose: 32.0 mg/kg/injection, schedule: Q01DX009 (sc), vehicle: saline with Tween-80) was 8 of 8 and the survivor count (dose: 32.0 mg/kg/injection, schedule: Q03HX016 (ip), vehicle: saline with Tween-80) was 7 of 8. For the same molecule, the survivor count (dose: 32.0 mg/kg/injection, schedule: Q03HX024 (ip), vehicle: saline with Tween-80) was 8 of 8, the survivor count (dose: 50.0 mg/kg/injection, schedule: Q01DX001 (ip), vehicle: Klucel (hydroxypropylcellulose) (HPC)) was 10 of 10 and the survivor count (dose: 50.0 mg/kg/injection, schedule: Q04DX003 (ip), vehicle: steroid suspending solution) was 6 of 6. For the same molecule, the survivor count (dose: 50.0 mg/kg/injection, schedule: Q04DX003 (oral), vehicle: steroid suspending solution) was 6 of 6, the survivor count (dose: 64.0 mg/kg/injection, schedule: Q01DX009 (ip), vehicle: saline with Tween-80) was 8 of 8 and the survivor count (dose: 64.0 mg/kg/injection, schedule: Q01DX009 (oral), vehicle: saline with Tween-80) was 8 of 8. The survivor count (dose: 64.0 mg/kg/injection, schedule: Q01DX009 (sc), vehicle: saline with Tween-80) was 8 of 8, the survivor count (dose: 64.0 mg/kg/injection, schedule: Q03HX016 (ip), vehicle: saline with Tween-80) was 6 of 8 and the survivor count (dose: 64.0 mg/kg/injection, schedule: Q03HX024 (ip), vehicle: saline with Tween-80) was 8 of 8. For the same molecule, the survivor count (dose: 64.0 mg/kg/injection, schedule: Q04DX003 (ip), vehicle: saline with Tween-80) was 8 of 8, the survivor count (dose: 64.0 mg/kg/injection, schedule: Q04DX003 (sc), vehicle: saline with Tween-80) was 8 of 8 and the survivor count (dose: 64.0 mg/kg/injection, schedule: Q08DX002 (ip), vehicle: saline with Tween-80) was 6 of 6. For the same molecule, the survivor count (dose: 65.0 mg/kg/injection, schedule: Q04DX003 (oral), vehicle: Klucel (hydroxypropylcellulose) (HPC)) was 10 of 10, the survivor count (dose: 100.0 mg/kg/injection, schedule: Q01DX001 (ip), vehicle: Klucel (hydroxypropylcellulose) (HPC)) was 10 of 10, 6 of 6, 8 of 8 and the survivor count (dose: 100.0 mg/kg/injection, schedule: Q04DX003 (ip), vehicle: steroid suspending solution) was 6 of 6. For the same molecule, the survivor count (dose: 100.0 mg/kg/injection, schedule: Q04DX003 (oral), vehicle: steroid suspending solution) was 6 of 6, the survivor count (dose: 108.0 mg/kg/injection, schedule: Q04DX003 (oral), vehicle: Klucel (hydroxypropylcellulose) (HPC)) was 10 of 10 and 9 of 9 and the survivor count (dose: 128.0 mg/kg/injection, schedule: Q01DX009 (oral), vehicle: saline with Tween-80) was 7 of 7 and 8 of 8. The survivor count (dose: 128.0 mg/kg/injection, schedule: Q01DX009 (sc), vehicle: saline with Tween-80) was 8 of 8, the survivor count (dose: 128.0 mg/kg/injection, schedule: Q03HX016 (ip), vehicle: saline with Tween-80) was 8 of 8 and the survivor count (dose: 128.0 mg/kg/injection, schedule: Q03HX024 (ip), vehicle: saline with Tween-80) was 8 of 8. The survivor count (dose: 128.0 mg/kg/injection, schedule: Q04DX003 (ip), vehicle: saline with Tween-80) was 8 of 8, the survivor count (dose: 128.0 mg/kg/injection, schedule: Q04DX003 (sc), vehicle: saline with Tween-80) was 8 of 8 and the survivor count (dose: 128.0 mg/kg/injection, schedule: Q08DX002 (ip), vehicle: saline with Tween-80) was 8 of 8. For the same molecule, the survivor count (dose: 180.0 mg/kg/injection, schedule: Q04DX003 (oral), vehicle: Klucel (hydroxypropylcellulose) (HPC)) was 10 of 10, the survivor count (dose: 200.0 mg/kg/injection, schedule: Q01DX001 (ip), vehicle: Klucel (hydroxypropylcellulose) (HPC)) was 10 of 10, 6 of 6, 8 of 8 and the survivor count (dose: 200.0 mg/kg/injection, schedule: Q04DX003 (ip), vehicle: steroid suspending solution) was 6 of 6. The survivor count (dose: 200.0 mg/kg/injection, schedule: Q04DX003 (oral), vehicle: steroid suspending solution) was 6 of 6, the survivor count (dose: 200.0 mg/kg/injection, schedule: Q08DX002 (oral), vehicle: steroid suspending solution) was 6 of 6 and the survivor count (dose: 256.0 mg/kg/injection, schedule: Q04DX003 (ip), vehicle: saline with Tween-80) was 8 of 8. The survivor count (dose: 256.0 mg/kg/injection, schedule: Q04DX003 (oral), vehicle: saline with Tween-80) was 8 of 8, the survivor count (dose: 256.0 mg/kg/injection, schedule: Q04DX003 (sc), vehicle: saline with Tween-80) was 8 of 8 and the survivor count (dose: 256.0 mg/kg/injection, schedule: Q08DX002 (ip), vehicle: saline with Tween-80) was 8 of 8. For the same molecule, the survivor count (dose: 300.0 mg/kg/injection, schedule: Q04DX003 (oral), vehicle: Klucel (hydroxypropylcellulose) (HPC)) was 10 of 10, the survivor count (dose: 400.0 mg/kg/injection, schedule: Q01DX001 (ip), vehicle: Klucel (hydroxypropylcellulose) (HPC)) was 10 of 10, 6 of 6, 8 of 8 and the survivor count (dose: 400.0 mg/kg/injection, schedule: Q04DX003 (oral), vehicle: steroid suspending solution) was 6 of 6. For the same molecule, the survivor count (dose: 400.0 mg/kg/injection, schedule: Q08DX002 (oral), vehicle: steroid suspending solution) was 6 of 6, the survivor count (dose: 500.0 mg/kg/injection, schedule: Q04DX003 (oral), vehicle: Klucel (hydroxypropylcellulose) (HPC)) was 10 of 10 and the survivor count (dose: 512.0 mg/kg/injection, schedule: Q04DX003 (ip), vehicle: saline with Tween-80) was 8 of 8. The survivor count (dose: 512.0 mg/kg/injection, schedule: Q04DX003 (oral), vehicle: saline with Tween-80) was 7 of 8 and 8 of 8, the survivor count (dose: 512.0 mg/kg/injection, schedule: Q04DX003 (sc), vehicle: saline with Tween-80) was 8 of 8 and the survivor count (dose: 512.0 mg/kg/injection, schedule: Q08DX002 (ip), vehicle: saline with Tween-80) was 6 of 7. The survivor count (dose: 800.0 mg/kg/injection, schedule: Q01DX001 (ip), vehicle: Klucel (hydroxypropylcellulose) (HPC)) was 8 of 10, 6 of 6, 8 of 8, the survivor count (dose: 800.0 mg/kg/injection, schedule: Q04DX003 (oral), vehicle: steroid suspending solution) was 6 of 6 and the survivor count (dose: 800.0 mg/kg/injection, schedule: Q08DX002 (oral), vehicle: steroid suspending solution) was 6 of 6. The survivor count (dose: 840.0 mg/kg/injection, schedule: Q04DX003 (oral), vehicle: Klucel (hydroxypropylcellulose) (HPC)) was 10 of 10, the survivor count (dose: 1024.0 mg/kg/injection, schedule: Q04DX003 (ip), vehicle: saline with Tween-80) was 6 of 8 and the survivor count (dose: 1024.0 mg/kg/injection, schedule: Q04DX003 (oral), vehicle: saline with Tween-80) was 7 of 8 and 8 of 8. For the same molecule, the survivor count (dose: 1024.0 mg/kg/injection, schedule: Q04DX003 (sc), vehicle: saline with Tween-80) was 8 of 8, the survivor count (dose: 1024.0 mg/kg/injection, schedule: Q08DX002 (ip), vehicle: saline with Tween-80) was 6 of 8 and the survivor count (dose: 1600.0 mg/kg/injection, schedule: Q08DX002 (oral), vehicle: steroid suspending solution) was 6 of 6. For the same molecule, the survivor count (dose: 2048.0 mg/kg/injection, schedule: Q04DX003 (oral), vehicle: saline with Tween-80) was 7 of 8, 7 of 7, 8 of 8.
